Experiment [1] addresses ALK-3 (BMP receptor Type I/IA; BMPR-I/IA) (UniProt P36894). As to the kind of experiment: radioligand receptor binding assay, competition with 125I-BMP-7 on immobilised receptor (FIG. 1).
The target is the same in experiment [2]. The experiment can be described thus: radioligand receptor binding assay, competition with 125I-BMP-7 on immobilised receptor (FIG. 1, 15).

Chains of the proteins cited; added tags and fusions are not shown. Residues count along the entry.
UniProt P36894, residues 24-152: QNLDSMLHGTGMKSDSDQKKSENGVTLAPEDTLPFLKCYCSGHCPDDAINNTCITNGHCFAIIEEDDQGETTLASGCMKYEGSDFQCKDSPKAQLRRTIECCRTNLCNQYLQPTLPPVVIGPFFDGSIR

These are yes or no findings as the source states them, for the method shown. Some entries that bind do so weakly or less than the wild type.

Consider CYFDDSSNVLCKKYRS [TDFRP compound (SEQ ID NO:45)], for which the binding entry in experiment [1] and in experiment [2] was “binds” each time.

The values are drawn from patent US20100209467A1.
